Data as given in PubChem BioAssay AID743454 (Peter MacCallum Cancer Centre, 2014)
Aim: 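Knock-downs lowering viability or raising caspase 3/7 activity in vorinostat-treated resistant cells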 (primary screen). Cells: human HCT116-VR colon cancer cells, selected for vorinostat resistance. Reagent: siRNA pool against human genes, 40 nM siRNA pool. Time to read-out: vorinostat for 24 h, read-out about 72 h after transfection. Conditions: vorinostat at 2.5 µM final. Detection: 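Two measures, CellTiter-Fluor viability and luminescent caspase 3/7 activity, each as fold change against same-plate mock wells, mean of duplicates, then screen-wide robust z-score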. Direction: viability robust z-score: higher = more viable cells than screen typical; caspase robust z-score: higher = more caspase 3/7 activity than screen typical. Active means: 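Hits are knock-downs in viability class RV1/RV2 or caspase class CA1/CA2, excluding ones that killed cells in the no-drug cell-count arm; hits then retested with single siRNAs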.
In all, the deposit lists about 18,000 reagents; below is a part drawn at random. Over the whole deposit, 450 (2.5%) were called active. 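Single biological run; no consistent viability z cut-off exists, so the class columns, not z-scores, define the calls.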 Entries without a mark were called inactive. No sequences are given here.

Against CT47A10, the values are viability hit class no change; caspase hit class no change; viability robust z-score 0.82; caspase robust z-score 2.96. For CCL4L1, the entry reads viability hit class no change; caspase hit class no change; viability robust z-score 0.57; caspase robust z-score 0.34. CCDC185 scored viability hit class no change; caspase hit class no change; viability robust z-score -0.92; caspase robust z-score -0.76. After knock-down of CRISP3, the screen gave viability hit class no change; caspase hit class no change; viability robust z-score -0.42; caspase robust z-score 0.16. Depletion of JHY gave: viability hit class no change; caspase hit class no change; viability robust z-score 0.34; caspase robust z-score -0.03. With knock-down of ZMYM4, the screen gave viability hit class no change; caspase hit class no change; viability robust z-score -1.75; caspase robust z-score 2.26.

Silencing of LRRC4 came out at: viability hit class no change; caspase hit class no change; viability robust z-score -1.48; caspase robust z-score 0.82. SLCO6A1 scored viability hit class no change; caspase hit class no change; viability robust z-score -0.59; caspase robust z-score -0.32. Against PIDD1 the deposit lists viability hit class no change; caspase hit class no change; viability robust z-score -0.18; caspase robust z-score 1.86. Against C22orf39 the deposit lists viability hit class no change; caspase hit class no change; viability robust z-score -0.04; caspase robust z-score 1.8. Against MLNR, the entry reads viability hit class no change; caspase hit class no change; viability robust z-score -0.16; caspase robust z-score 0.44. Against CLSTN2, the entry reads viability hit class no change; caspase hit class no change; viability robust z-score 0.26; caspase robust z-score 0.68.

SIRT2 showed viability hit class no change; caspase hit class no change; viability robust z-score 1.99; caspase robust z-score -0.2. DESI1 gave viability hit class no change; caspase hit class no change; viability robust z-score 0.08; caspase robust z-score 1.86. Depletion of EXOSC7 gave: viability hit class no change; caspase hit class no change; viability robust z-score -0.34; caspase robust z-score 0.42. After knock-down of CACNA1A, the record shows viability hit class no change (active); caspase hit class CA2 (caspase activation); viability robust z-score -1.47; caspase robust z-score 5.94.

An excerpt taken from the entries so far, for reference:
C22orf39 | viability hit class = no change; caspase hit class = no change; viability robust z-score = -0.04; caspase robust z-score = 1.8
MLNR | viability hit class = no change; caspase hit class = no change; viability robust z-score = -0.16; caspase robust z-score = 0.44

The list goes on.
With knock-down of PRRX1 the results were viability hit class no change; caspase hit class no change; viability robust z-score 1.66; caspase robust z-score -0.48. For APOOL, the values are viability hit class no change; caspase hit class no change; viability robust z-score 1.1; caspase robust z-score -0.24. For MYO1B, the entry reads viability hit class no change; caspase hit class no change; viability robust z-score 0.22; caspase robust z-score 0.41. Depletion of ATG2B came out at: viability hit class no change; caspase hit class no change; viability robust z-score 0.22; caspase robust z-score -0.8. Silencing of BAGE4 resulted in: viability hit class no change; caspase hit class no change; viability robust z-score -2.5; caspase robust z-score 2.31. After knock-down of TMEM95, the record shows viability hit class no change; caspase hit class no change; viability robust z-score -0.01; caspase robust z-score 0.66.

DDX17 showed viability hit class no change; caspase hit class no change; viability robust z-score -0.32; caspase robust z-score 2.33. After knock-down of NDUFB10, the screen gave viability hit class no change; caspase hit class no change; viability robust z-score -0.3; caspase robust z-score -0.41. For OR14A16 the deposit lists viability hit class no change; caspase hit class no change; viability robust z-score 0.55; caspase robust z-score 0.03. With knock-down of C16orf86, the record shows viability hit class no change; caspase hit class no change; viability robust z-score 1.44; caspase robust z-score 0. NLRP7 showed viability hit class no change; caspase hit class no change; viability robust z-score -0.71; caspase robust z-score 1.8.
